# In all, about 340,000 compounds went through this assay and about 1,200 (0.35%) were called active. This list was built around the results that the source calls inconclusive (neither active nor inactive); the mix of calls is not that of the screen. No stated cut-off is given here; in the data, active means inhibition above about 50% (passing the limit was not always enough); inconclusive means no clear call, values can overlap the other calls; inactive means below about 31%.
# Assay: blockers of Vif multimerization in cells – imaging, HEK293T, single point, primary screen (AID 602346)
# Details: Vif self-association by quenched fluorescence, 24 h, at 7.49 µM, stronger effect = higher value
row,Structure (SMILES),inhibition
1,Cn1nnnc1SCc1ccc(C(=O)Nc2ccc(Br)cc2)cc1,active: 80.9%
2,Cc1ccnc(NC(=O)c2ccc(Cl)c(S(=O)(=O)N3CCCC3)c2)c1,inactive: -6.68%
3,C[C@H]1CN(C2CCCCC2)C(=O)[C@@H]1CC(=O)Nc1ccc(Br)cc1,inconclusive: 24.3%
4,COc1ccccc1CNC(=O)C1CCC(CNS(=O)(=O)c2cccs2)CC1 (centres undefined),active: 54.9%
5,COc1ccc(N[C@@H]2CCN3C(=O)c4ccccc4[C@@H]3C[C@H]2O)cc1,inconclusive: 29.4%
6,CCOC(=O)c1sc(NNC(=O)c2ccc(C)cc2)nc1C,inconclusive: 38%
7,O=C(Nc1cccc(F)c1)Nc1ccccn1,inconclusive: 31%
8,CCOc1ccc(NC(=O)N[C@@H](Cc2ccccc2)C(=O)O)cc1,inactive: 0.364%
9,CC1(C)C(=O)N(c2ccccc2F)C(=O)c2ccccc21,inconclusive: 23.2%
10,O=c1[nH]c2ccc(Cl)cc2c(-c2ccccc2)c1[N+](=O)[O-],inconclusive: 34.1%
11,O=Cc1s/c(=N\S(=O)(=O)c2ccccc2)n(CCCCl)c1Cl,active: 57.2%
12,O=C(Cn1cnc2sc(-c3ccccc3)cc2c1=O)NCCc1ccccc1,inconclusive: 43%
13,Cc1ccc(C(=O)c2ccccc2C(=O)O)s1,inconclusive: 45.5%
14,CC(=O)C1=C(C)NC(SCC(=O)c2ccc(Cl)c(Cl)c2)=C(C#N)C1c1ccco1 (centres undefined),active: 82.1%
15,O=C(Nc1ccc2c(c1)ncn2-c1ccccc1)c1ccco1,inconclusive: 32%
16,CCOC(=O)C1=C[C@@H](C(C)(C)C)N(S(=O)(=O)c2ccccc2C)[C@H]1c1ccc(Cl)cc1,inconclusive: 28.5%
17,Cc1ccccc1Nc1ncnc2[nH]ncc12,inactive: 14.4%
18,CN(NC1OC(=O)c2ccccc21)c1ccc(Cl)cc1[N+](=O)[O-] (centres undefined),inactive: -4.21%
19,COCCn1c(C)cc(C(=O)CSc2n[nH]c(N)n2)c1C,inconclusive: 28.6%
20,CCOC(=O)CC(C#N)c1cn(C)c2ccccc12 (centres undefined),inactive: -1.03%

row,Structure (SMILES),inhibition
1,CC(C)C1Nc2ccc(C(=O)NCCCN3CCOCC3)cc2NC1=O (centres undefined),active: 54.6%
2,COc1ccc(NS(=O)(=O)c2ccc3c(c2)n(C)c(=O)n3C)cc1,inactive: 4.35%
3,O=C(Nc1csc([N+](=O)[O-])c1)Nc1c(Cl)cccc1Cl,inconclusive: 43%
4,CC(=O)Nc1ccc(S(=O)(=O)Nc2nc(-c3ccc(C(C)(C)C)cc3)cs2)cc1,inconclusive: 39%
5,CC1OC(Oc2c(-c3cc(O)c(O)c(O)c3)oc3cc(O)cc(O)c3c2=O)C(O)C(O)C1O (centres undefined),inactive: 4.53%
6,NNC(=S)Nc1cccc(-c2n[nH]c(=S)o2)c1,inconclusive: 42.1%
7,COc1ccc(-c2cc(N)n(S(=O)(=O)c3c(F)c(F)c(F)c(F)c3F)n2)cc1OC,active: 59.1%
8,OC(COCc1ccc(Cl)cc1)CN1CCN(c2ccccn2)CC1 (centres undefined),inconclusive: 49.1%
9,COc1ccc(-c2nn(-c3ccccc3)cc2C(=O)NC(=S)NNC(=O)c2ccncc2)cc1,active: 59.6%
10,OC1(C2(O)CC(c3ccccc3)ON2)CCCCC1 (centres undefined),inconclusive: 45.6%
11,Cc1c(C(=O)N/N=C/c2cccs2)nnn1-c1nonc1N,inconclusive: 42.2%
12,COc1ccc(/C=C(\C#N)c2c[nH]c3ccccc23)cc1,active: 52.1%
13,CCOC(=O)C1CCCN(c2c(NCCCN3CCCC(C)C3)c(=O)c2=O)C1 (centres undefined),inactive: 11.6%
14,Cc1nn2c(COc3ccc(NC(=O)c4ccccc4Cl)cc3)nnc2c2ccccc12,active: 98.6%
15,Cc1cccn2c(=O)c3cc(C#N)c(=N)n(CCN4CCOCC4)c3nc12,inactive: 11.8%
16,COc1cc(NC(=O)CSCc2ccc(Cl)cc2Cl)c(C(=O)O)cc1OC,inconclusive: 40.2%
17,COc1ccc(-c2ccc(CCC(=O)O)n2-c2cc(OC)ccc2OC)cc1,inactive: 0.424%
18,O=C(NNc1ccccc1)c1ccccc1,inconclusive: 45.7%
19,CN(/N=C/c1ccc(N(C)C)cc1)C1=NS(=O)(=O)c2ccccc21,active: 128%
20,CCOC(=O)c1csc(N)c1-c1ccc([N+](=O)[O-])cc1,inconclusive: 41.9%

row,Structure (SMILES),inhibition
1,CCNC(=O)CSc1nnc(-c2cccc(S(=O)(=O)N3CCOCC3)c2)o1,inconclusive: 26%
2,O=C(O)c1cccc(S(=O)(=O)N2CCCC2)c1,inconclusive: 26.4%
3,O=C(NN1CCOCC1)c1cc(-c2ccccc2)nc2ccccc12,inconclusive: 24.5%
4,CN(C(=O)CSc1nc2c(c(=O)[nH]1)CCCC2)C1CCCCC1,inconclusive: 27.4%
5,O=C1OC(/C=C/c2ccccc2)=NC/1=C/C=C/c1ccccc1,inactive: 10.3%
6,CN(C)S(=O)(=O)c1cccc(NC(=O)c2cccc(NS(=O)(=O)c3ccccc3)c2)c1,inconclusive: 17.1%
7,NC(=N\N=Cc1ccccc1)/C(N)=N/N=Cc1ccccc1,inconclusive: 33.1%
8,O=c1cc(Nc2ccc3c(c2)OCCO3)[nH]c(=O)n1C1CCCCC1,inactive: 2%
9,COc1cc(NC(=O)COc2ccccc2)ccc1NC(=O)c1ccco1,active: 66.2%
10,CCOC(=O)C1(Cc2cccc(F)c2)CCN(Cc2nc(CC)[nH]c2C)CC1,active: 85.1%
11,CCCCn1c(-c2ccncc2)nc2c1c(=O)[nH]c(=O)n2CC(C)C,active: 56.9%
12,COc1ccc(C(=O)Nc2ccc(N3CCN(C(=O)C(C)C)CC3)cc2)cc1[N+](=O)[O-],active: 63.5%
13,COc1ccc(CNC(=O)c2cc(C)nn2-c2ccccc2)cc1,inactive: -4.75%
14,CSc1ccc(S(=O)(=O)NC2CC2)cc1,inactive: 5.54%
15,O=C(CN1CCOCC1)OCCCC1CCCCC1,active: 53.7%
16,CN(C)S(=O)(=O)c1cc(NC(=O)COC(=O)CC2CC3CCC2C3)ccc1Cl (centres undefined),inconclusive: 40.7%
17,Cc1ccc(-c2cc(C(=O)NCc3ccccn3)c3ccccc3n2)cc1C,inconclusive: 49.9%
18,CCOc1ccccc1-c1cc(C(=O)N/N=C/c2ccc3c(c2)OCO3)c2ccccc2n1,inactive: 8.42%
19,O=C(CCNC(=O)c1ccccc1Cl)Nc1ccc2c(c1)OCCO2,inactive: -2.34%

# Quoted at random: 5 records from the list, in no set order.
row,Structure (SMILES),inhibition
10,CCOC(=O)C1(Cc2cccc(F)c2)CCN(Cc2nc(CC)[nH]c2C)CC1,active: 85.1%
6,CN(C)S(=O)(=O)c1cccc(NC(=O)c2cccc(NS(=O)(=O)c3ccccc3)c2)c1,inconclusive: 17.1%
14,CSc1ccc(S(=O)(=O)NC2CC2)cc1,inactive: 5.54%
13,COc1ccc(CNC(=O)c2cc(C)nn2-c2ccccc2)cc1,inactive: -4.75%
3,O=C(NN1CCOCC1)c1cc(-c2ccccc2)nc2ccccc12,inconclusive: 24.5%
